In publication PMC13289029:
No constants are given. Whether binding was seen depends on the method and setting. Binding seen in cells or lysates may run through a third protein. These calls come from enrichment with a bait or labelling near it, and not all partners need be listed.

B1: GroEL (protein, UniProt Q8CWW6 1-542)
chain: MAKDIKFSADARSSMVRGVDILADTVKVTLGPKGRNVVLEKSFGSPLITNDGVTIAKEIELEDHFENMGAKLVSEVASKTNDIAGDGTTTATVLTQAIVREGLKNVTAGANPIGIRRGIETAVATAVDELKAIAQPVSGKEAIAQVAAVSSRSEKVGEYVSEAMEKVGNDGVITIEESRGMETELDVVEGMQFDRGYLSQYMVTDNEKMVADLENPYLLITDKKISNIQDVLPLLEEVLKTNRPLLIIADDVDGEALPTLVLNKIRGTFNVVAVKAPGFGDRRKAMLEDIAVLTGGTVITEDLGLELKDTTIDALGQAARVTVDKDSTVIVEGSGGKEAVANRVNLIKSQIETATSDFDREKLQERLAKLSGGVAVIKVGAATETELKEMKLRIEDALNATRAAVEEGIVAGGGTALINVIEKVAALDLTDDAATGRNLVLRALEEPVRQIAKNAGYEGSVIIDKLKNSSAGTGFNAANGEWVDMIDAGIIDPVKVTRSALQNAASVASLILTTEAVVADHPAPEAPAAAPAMDPSMMGGMM
B2: PttB (protein, UniProt I6L905 1-655)
chain: MGKFEKDAKVLLDAIGGKENVSAVTHCATRMRFVLNDESKADVKTIEAIPAVKGTFTNAGQFQIIIGNDVPLFYNDFTAVSGIEGVSKETAKSAAKSHQNPIQRVMTLLAEIFTPIIPAIIVGGLILGFRNVIDQVQWGFLDGQTIAQHSQFWSGISSFLWLPGEAIFQFLPVGIVWSVSRKMGTSQILGIVLGICLVSPQLLNAYNVASTPAAEIAKKWVWDFGFFTVRRIGYQGQVIPALLAGLSLSYLEIFWRKKIPEVVSMIFVPFLSLIPALILAHTVLGPIGWTIGQWISTIVYAGLTGPVKWLFGAIFGALYAPFVITGLHHMTNAIDTQLVADTGGTGLWPMIALSNIAQGSAVFAYYLMNRHEEREAQVSLPATISAYLGVTEPALFGVNIKYVYPLVAGMIGSSIAGFLSVTFNVTANAIGIGGLPGILSIKVKYMLPFFIIMLVAIAVPMVLTVFFRRINFLTKSEDEAHQEKTETAEISASEKTNEPAVGTTFEIKSPLKGQVKPLSEAVDPVFAQGVMGQGVLIDPSEGLLTSPVNGVVSVLFPTKHALGLVTDQGLELLIHIGMDTVNLEGKGFETYVKQGDTIKVGDKLIRFDIDAIHQAGYTTETPVIVTNQNDYQPDVVGSLPREIERGEVLLTASKI
B3: SMU_723 (protein, UniProt Q8DV01 1-893)
chain: MFKKQKRDSFYVQDEKTVLSGLESSKKGLTSTQAKQRLADYGYNELEEDEKRTILAKFIDQFKDLMIIILLVAAALSVITEGMGGLTDAIIILVVVVLNAAFGVYQEGQAEAAIEALKSMSSPHARVRRDGHVTEIDSKELVPGDVVLLEAGDVVPADMRLLEAASLKIEEAALTGESVPVEKSVTVAIASDAGIGDRLNMAYQNSNVTYGRGMGVVTNTGMYTEVGHIAGMLANADETDTPLKQSLDNLSKVLTYVIIIIAIITCLVGIFVRHEEPLEGLMVAVALAVAAIPEGLPAIVTVVLSLGTKTLAKRQSIVRKLPAVETLGSTEIIASDKTGTLTMNQMTVEKVYYNGRLVDANDDIDVNNMALRVMNFANDSKVDANGKLIGDPTETALVQYGFDHNFDIREVLKAELRVAELPFDSDRKLMSTIHKLDGEKYLIAVKGAPDQLLKRITQIEIDGSIRPITEDDKKAILDMNKSLAKQALRVLMIAYKYESEIPKLETAVVENDLIFAGLVGMIDPERPEAAEAVHVAKEAGIRPIMITGDHQDTAEAIAKRLGIIDDDGIDHVFTGAELNELSDEEFQKVFKQYSVYARVSPEHKVRIVKAWQNDGKIVAMTGDGVNDAPSLKTADIGIGMGITGTEVSKGASDMVLADDNFATIIVAVEEGRKVFSNIQKSIQYLLSANMAEVFTIFFATLFGWDVLQPVHLLWINLVTDTLPAIALGVEPAEPGVMTHKPRGRKSSFFSGGVMGAIIYQGILQTLLVLGVYGWAVFFPEHATRTEIHADALTMAFATLGLIQLVHAYNVKSVYQSIFKVGFFKNKTFNWALPTALIIMLATIVIPGFNRFFHVSHLSVTQWCVVVGGSLAMFVIVEIVKAIQRVLGQDQKAI

Legend:
[1] = target: DacA-FLAG (Streptococcus mutans UA159); assay: affinity purification with mass spectrometry; anti-FLAG M2 affinity gel on lysate of the DacA-FLAG strain, FLAG peptide elution; whether these hits came from the non-crosslinked or the crosslinked samples is not given
[2] = target: DacA-FLAG (Streptococcus mutans UA159); assay: affinity purification with mass spectrometry; non-crosslinked; lysate of mid-log S. mutans DacA-FLAG strain (150 mM NaCl, 10% glycerol, 100 mM Na-phosphate pH 7.0, 1% Triton X-100) on anti-FLAG M2 affinity gel 3 h at 4°C, FLAG peptide elution; UA159 as no-FLAG control; hits at least twofold enriched with spectral counts >10
[3] = target: DacA-FLAG (Streptococcus mutans UA159); assay: affinity purification with mass spectrometry; crosslinked; cells in PBS with 1% formaldehyde 20 min at room temperature, quenched with 0.125 M glycine, then lysate on anti-FLAG M2 affinity gel 3 h at 4°C, FLAG peptide elution; UA159 as no-FLAG control; hits at least twofold enriched with spectral counts >10

| Binder | binding [1] | binding [2] | binding [3] |
| --- | --- | --- | --- |
| B1 | binds | – | – |
| B2 | – | binds | binds |
| B3 | – | binds | binds |
